Test results taken from US9309286B2 (TUFTS MEDICAL CENTER, priority 2011, dated 2016).

Test: Fmoc solid-phase peptide synthesis; Amide Resin, 0.66 mmol/g
Settings: whole synthesis, HPLC, scale of the general procedure 0.100 mmol; run 1

Substance: PEPTIDE1{Y.A.R.A.A.A.R.Q.A.R.A.H.P.R.N.P.A.R.R.T.P.G.T.R.R.G.A.P.A.A.[am]}$$$$V2.0
- purity (crude or final not stated): 100%

Strings that start with PEPTIDE1 are HELM notation: dots part the residues, brackets hold end groups and non-standard residues.
